Test results from paper PMC10342804, “Neuroprotective and Disease-Modifying Effects of the Triazinetrione ACD856, a Positive Allosteric Modulator of Trk-Receptors for the Treatment of Cognitive Dysfunction in Alzheimer’s Disease” (International Journal of Molecular Sciences, 2023).
Results are given in words; binding and its absence hold for the method and conditions named. Binding seen in cells or lysates may run through a third protein. Some results given as binding are weak or reduced against the parent protein; the word gives no strength. Where a sequence is shown, tags or fusion partners need not be part of it.

Sequences of proteins named here, by UniProt entry; tags and fusion partners are left off. A change or cut given only in a name is not applied to a line headed by its entry. A line that says so, or that is headed by a name, gives the form on record, which may keep a tag or linker.
TrkA receptor (tropomyosin receptor kinase A) in U2OS-TrkA/SHC-1/p75NTR PathHunter cells (P04629, form named): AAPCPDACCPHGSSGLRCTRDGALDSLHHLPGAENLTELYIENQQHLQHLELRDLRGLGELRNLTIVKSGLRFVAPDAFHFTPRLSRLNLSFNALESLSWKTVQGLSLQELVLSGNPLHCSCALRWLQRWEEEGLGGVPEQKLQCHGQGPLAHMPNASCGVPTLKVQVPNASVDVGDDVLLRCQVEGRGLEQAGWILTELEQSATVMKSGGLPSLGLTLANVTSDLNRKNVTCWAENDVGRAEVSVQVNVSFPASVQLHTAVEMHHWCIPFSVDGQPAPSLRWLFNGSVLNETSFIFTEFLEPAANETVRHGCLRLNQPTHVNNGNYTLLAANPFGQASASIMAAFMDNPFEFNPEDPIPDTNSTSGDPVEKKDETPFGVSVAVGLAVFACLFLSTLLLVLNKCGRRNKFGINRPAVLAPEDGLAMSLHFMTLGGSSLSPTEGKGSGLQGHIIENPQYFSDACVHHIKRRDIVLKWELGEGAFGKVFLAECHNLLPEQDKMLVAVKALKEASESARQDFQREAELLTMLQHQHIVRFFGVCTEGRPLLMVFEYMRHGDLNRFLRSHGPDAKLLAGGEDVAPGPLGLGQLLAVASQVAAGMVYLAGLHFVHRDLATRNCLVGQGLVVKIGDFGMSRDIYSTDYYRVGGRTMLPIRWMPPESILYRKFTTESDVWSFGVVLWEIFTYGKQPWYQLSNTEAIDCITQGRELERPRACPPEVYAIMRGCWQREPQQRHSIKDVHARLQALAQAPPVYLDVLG

Molecular target: TrkA receptor (tropomyosin receptor kinase A) in U2OS-TrkA/SHC-1/p75NTR PathHunter cells (UniProt P04629)
Experiment: split reporter; PathHunter enzyme fragment complementation (β-gal donor on TrkA, acceptor on SHC-1) in U2OS-TrkA/SHC-1/p75NTR cells; treated with DMSO, NGF (0.3-30 ng/mL) or NGF plus ACD856 for 3 h at room temperature; luminescence

binding: binds
B1: SHC-1 fused to the β-gal enzyme acceptor in U2OS-TrkA/SHC-1/p75NTR PathHunter cells (protein, UniProt P29353 1-583)
chain: MDLLPPKPKYNPLRNESLSSLEEGASGSTPPEELPSPSASSLGPILPPLPGDDSPTTLCSFFPRMSNLRLANPAGGRPGSKGEPGRAADDGEGIVGAAMPDSGPLPLLQDMNKLSGGGGRRTRVEGGQLGGEEWTRHGSFVNKPTRGWLHPNDKVMGPGVSYLVRYMGCVEVLQSMRALDFNTRTQVTREAISLVCEAVPGAKGATRRRKPCSRPLSSILGRSNLKFAGMPITLTVSTSSLNLMAADCKQIIANHHMQSISFASGGDPDTAEYVAYVAKDPVNQRACHILECPEGLAQDVISTIGQAFELRFKQYLRNPPKLVTPHDRMAGFDGSAWDEEEEEPPDHQYYNDFPGKEPPLGGVVDMRLREGAAPGAARPTAPNAQTPSHLGATLPVGQPVGGDPEVRKQMPPPPPCPGRELFDDPSYVNVQNLDKARQAVGGAGPPNPAINGSAPRDLFDMKPFEDALRVPPPPQSVSMAEQLRGEPWFHGKLSRREAEALLQLNGDFLVRESTTTPGQYVLTGLQSGQPKHLLLVDPEGVVRTKDHRFESVSHLISYHMDNHLPIISAGSELCLQQPVERKL
